From patent US20080171387A1
No constants are given. Whether binding was seen depends on the method and setting. In cells and extracts the contact can be indirect. Some results given as binding are weak or reduced against the parent protein; the word gives no strength.

Chains of the proteins cited; added tags and fusions are not shown. Lines headed by an entry give the natural chain unless they say otherwise; changes in a name come on top.
UniProt P38398: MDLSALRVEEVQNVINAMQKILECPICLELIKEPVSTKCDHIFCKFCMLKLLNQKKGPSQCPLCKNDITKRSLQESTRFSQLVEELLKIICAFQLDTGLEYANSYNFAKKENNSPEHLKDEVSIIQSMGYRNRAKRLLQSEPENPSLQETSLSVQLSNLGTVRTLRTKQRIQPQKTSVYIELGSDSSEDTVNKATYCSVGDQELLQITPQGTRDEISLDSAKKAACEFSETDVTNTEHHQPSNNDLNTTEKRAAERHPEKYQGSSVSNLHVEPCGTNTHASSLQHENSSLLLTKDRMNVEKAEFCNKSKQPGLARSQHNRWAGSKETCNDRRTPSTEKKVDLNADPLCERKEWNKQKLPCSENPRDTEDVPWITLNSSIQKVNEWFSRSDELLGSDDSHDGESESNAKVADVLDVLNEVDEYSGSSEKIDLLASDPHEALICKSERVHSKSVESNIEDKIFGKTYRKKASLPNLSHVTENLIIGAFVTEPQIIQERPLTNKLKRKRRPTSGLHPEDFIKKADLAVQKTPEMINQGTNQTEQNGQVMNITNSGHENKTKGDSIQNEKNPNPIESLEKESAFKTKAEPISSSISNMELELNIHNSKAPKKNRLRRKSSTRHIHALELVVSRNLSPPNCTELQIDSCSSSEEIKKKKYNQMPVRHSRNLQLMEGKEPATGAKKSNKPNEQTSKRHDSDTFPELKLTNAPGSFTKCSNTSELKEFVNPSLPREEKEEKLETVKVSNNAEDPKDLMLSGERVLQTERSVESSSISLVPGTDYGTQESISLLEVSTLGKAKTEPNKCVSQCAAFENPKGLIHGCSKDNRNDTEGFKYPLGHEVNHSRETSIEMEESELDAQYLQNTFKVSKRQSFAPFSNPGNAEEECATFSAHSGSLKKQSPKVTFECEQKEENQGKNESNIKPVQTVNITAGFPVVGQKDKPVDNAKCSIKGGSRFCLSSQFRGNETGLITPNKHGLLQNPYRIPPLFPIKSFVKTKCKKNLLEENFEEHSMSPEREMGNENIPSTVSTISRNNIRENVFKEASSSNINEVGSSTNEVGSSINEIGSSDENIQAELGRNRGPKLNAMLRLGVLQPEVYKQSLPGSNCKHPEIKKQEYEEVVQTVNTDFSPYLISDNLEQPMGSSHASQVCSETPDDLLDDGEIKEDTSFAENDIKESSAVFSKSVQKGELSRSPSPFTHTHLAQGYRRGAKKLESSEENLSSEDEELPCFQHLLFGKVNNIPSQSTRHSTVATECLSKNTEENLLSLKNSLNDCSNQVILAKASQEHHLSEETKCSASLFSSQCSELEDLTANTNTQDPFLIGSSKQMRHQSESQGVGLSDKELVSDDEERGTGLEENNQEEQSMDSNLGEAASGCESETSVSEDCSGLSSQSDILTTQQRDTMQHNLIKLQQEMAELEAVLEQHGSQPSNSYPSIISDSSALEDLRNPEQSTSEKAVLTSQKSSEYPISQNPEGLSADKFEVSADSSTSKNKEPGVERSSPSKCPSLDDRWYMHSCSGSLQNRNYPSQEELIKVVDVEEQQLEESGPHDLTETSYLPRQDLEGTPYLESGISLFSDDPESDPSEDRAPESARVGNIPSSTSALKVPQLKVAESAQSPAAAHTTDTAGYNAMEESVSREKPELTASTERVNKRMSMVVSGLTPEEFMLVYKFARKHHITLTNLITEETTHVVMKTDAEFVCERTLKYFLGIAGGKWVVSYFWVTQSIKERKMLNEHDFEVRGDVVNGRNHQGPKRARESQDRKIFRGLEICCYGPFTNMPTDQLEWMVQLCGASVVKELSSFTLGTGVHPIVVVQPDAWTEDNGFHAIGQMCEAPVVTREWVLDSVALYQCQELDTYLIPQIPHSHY
UniProt P51532: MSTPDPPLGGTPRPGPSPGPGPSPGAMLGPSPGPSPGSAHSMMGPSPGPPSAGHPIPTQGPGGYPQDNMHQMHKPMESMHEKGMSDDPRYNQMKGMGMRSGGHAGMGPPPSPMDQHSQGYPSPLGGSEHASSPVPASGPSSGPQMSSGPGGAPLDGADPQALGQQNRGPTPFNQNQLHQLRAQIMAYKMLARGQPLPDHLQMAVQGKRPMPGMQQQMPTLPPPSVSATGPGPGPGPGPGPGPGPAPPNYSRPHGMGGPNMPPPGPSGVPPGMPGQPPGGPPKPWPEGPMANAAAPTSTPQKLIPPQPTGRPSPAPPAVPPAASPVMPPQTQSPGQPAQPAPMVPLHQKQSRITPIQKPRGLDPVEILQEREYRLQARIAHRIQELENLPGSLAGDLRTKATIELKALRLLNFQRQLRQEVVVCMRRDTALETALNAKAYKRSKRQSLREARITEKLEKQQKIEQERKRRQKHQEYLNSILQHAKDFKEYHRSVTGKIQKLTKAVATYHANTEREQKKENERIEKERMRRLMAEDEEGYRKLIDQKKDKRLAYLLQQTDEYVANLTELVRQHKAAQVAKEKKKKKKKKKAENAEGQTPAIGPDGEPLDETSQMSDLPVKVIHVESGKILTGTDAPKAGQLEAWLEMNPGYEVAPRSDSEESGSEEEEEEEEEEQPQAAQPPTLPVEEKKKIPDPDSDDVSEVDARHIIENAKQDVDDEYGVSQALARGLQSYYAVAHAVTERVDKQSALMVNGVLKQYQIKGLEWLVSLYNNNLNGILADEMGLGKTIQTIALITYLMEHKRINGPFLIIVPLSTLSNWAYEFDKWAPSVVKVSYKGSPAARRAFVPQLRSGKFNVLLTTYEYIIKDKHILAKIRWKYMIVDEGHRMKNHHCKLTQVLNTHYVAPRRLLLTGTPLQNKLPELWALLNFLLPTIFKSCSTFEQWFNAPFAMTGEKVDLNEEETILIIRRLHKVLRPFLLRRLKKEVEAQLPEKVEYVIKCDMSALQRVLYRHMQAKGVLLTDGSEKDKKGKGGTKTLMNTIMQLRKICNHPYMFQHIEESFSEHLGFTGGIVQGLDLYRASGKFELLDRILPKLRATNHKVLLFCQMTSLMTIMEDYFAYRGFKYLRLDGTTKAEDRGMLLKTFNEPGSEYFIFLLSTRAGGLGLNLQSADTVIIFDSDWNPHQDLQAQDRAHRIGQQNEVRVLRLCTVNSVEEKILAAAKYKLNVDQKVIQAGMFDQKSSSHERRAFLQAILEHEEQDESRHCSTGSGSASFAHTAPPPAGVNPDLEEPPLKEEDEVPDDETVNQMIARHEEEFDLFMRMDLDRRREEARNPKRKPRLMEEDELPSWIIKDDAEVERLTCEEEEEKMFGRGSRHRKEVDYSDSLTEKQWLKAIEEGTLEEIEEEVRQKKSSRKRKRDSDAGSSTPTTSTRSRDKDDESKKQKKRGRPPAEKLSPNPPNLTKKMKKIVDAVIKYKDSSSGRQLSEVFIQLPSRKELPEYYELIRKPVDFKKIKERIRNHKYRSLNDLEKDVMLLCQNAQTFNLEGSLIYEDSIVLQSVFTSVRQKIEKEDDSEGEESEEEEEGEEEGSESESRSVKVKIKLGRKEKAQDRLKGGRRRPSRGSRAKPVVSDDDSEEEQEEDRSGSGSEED

Tests used:
[1] = molecular target: GST-BRCA1 fusion protein #2 (BRCA1 amino acids 260-553) (Homo sapiens (Human)) (UniProt P38398); test: GST pull-down on glutathione-SEPHAROSE, western blot for BRG1
[2] = molecular target: Full-length his-tagged BRCA1 (Homo sapiens (Human)) (UniProt P38398); test: FLAG affinity column pull-down of purified recombinant FLAG-BRG1 and his-BRCA1, western blot; similar results on co-expression in insect cells

FLAG-BRG1 (from UniProt P51532 1-1647)
binding [1]: binds
binding [2]: binds
